# From patent US7378433B2, “N-[4-(heteroarylmethyl)phenyl]-heteroarylamines” (Janssen Pharmaceutica, N.V., priority 1996, dated 2008)
# Some entries share one result that the patent states for a list of compounds.
# Experiments:
# [1] = test system: RA-metabolism in MCF-7 human breast cancer cells; assay: Inhibition of retinoic acid (RA) metabolism; format: cell-based; conditions: concentration needed to reduce the amount of polar 3H-RA metabolites to 50% of the control; MCF-7 cells
# From the text: The property to delay the metabolism of retinoic acid can be evidenced in various in vitro and in vivo experiments. A particular in vitro procedure is described in example C.1 and tests the inhibitory activity of the compounds of formula (I) on the metabolism of retinoic acid in human breast cancer cells. The compounds of the present invention were also effective in suppressing induced vaginal keratinization effects in ovariectomized rats as is described in example C.2.
# MCF-7 human breast cancer cells were grown as stock cultures according to art-known protocols. One day before the experiment, RA is added to the stock cultures to stimulate RA-metabolism. At the start of the experiment, cell suspensions were incubated in a tissue culture medium containing ^3H-RA as the substrate. Different concentrations of the test compound (dissolved in 1% DMSO) were added to the incubation mixtures, and at the end of the incubation, the unmetabolized RA is separated from its polar metabolites. The fraction containing the polar ^3H-labeled metabolites was collected and counted in a scintillation counter. For each experiment, a control and a blank incubation were run in parallel.
# ovariectomized rats = assay: Vaginal keratinization test on ovariectomized rats; format: in vivo, rat; conditions: per os once daily on day one, two and three; active dose = 50% of rats show complete suppression of estradiol undecylate induced keratinization
SMILES,IC50 [1],lowest active dose (LAD) (ovariectomized rats)
"CCC(CC)C(c1ccc(Nc2nc3ccccc3s2)cc1)n1cncn1 (centres unmarked) [Compound 33, (A)-N-[4-[2-ethyl-1-(1H-1,2,4-triazol-1-yl)butyl]-phenyl]-2-benzothiazolamine]",< 0.01 µM,
"CCC(CC)C(c1ccc(Nc2nc3ccccc3s2)cc1)n1cncn1 (centres unmarked) [Compound 34, (B)-N-[4-[2-ethyl-1-(1H-1,2,4-triazol-1-yl)butyl]phenyl]-2-benzothiazolamine]",,≤ 2.5 mg/kg
